The other results are listed elsewhere or left out. Most entries show no effect beyond the scatter of the controls.
Each target was assayed with CN[C@@H]1C[C@H]2O[C@@](C)([C@@H]1OC)n1c3ccccc3c3c4c(c5c6ccccc6n2c5c31)C(=O)NC4 [staurosporine] (assay: log2 fold change of tryptic peptide abundance, ligand vs vehicle (limited proteolysis) (log2 ratio); higher = more trypsin-susceptible (destabilized)). Conditions: ligand concentration: 20 uM; sample: K562 cleared lysate; digestion: 4 min, 22 C (HT-PELSA RT4min, Orbitrap Astral).

The chains behind the UniProt entries cited, without tags or fusion partners. Where a name states a change or a piece, a line headed by the entry shows the natural chain unless it says otherwise.
UniProt Q9NYU2: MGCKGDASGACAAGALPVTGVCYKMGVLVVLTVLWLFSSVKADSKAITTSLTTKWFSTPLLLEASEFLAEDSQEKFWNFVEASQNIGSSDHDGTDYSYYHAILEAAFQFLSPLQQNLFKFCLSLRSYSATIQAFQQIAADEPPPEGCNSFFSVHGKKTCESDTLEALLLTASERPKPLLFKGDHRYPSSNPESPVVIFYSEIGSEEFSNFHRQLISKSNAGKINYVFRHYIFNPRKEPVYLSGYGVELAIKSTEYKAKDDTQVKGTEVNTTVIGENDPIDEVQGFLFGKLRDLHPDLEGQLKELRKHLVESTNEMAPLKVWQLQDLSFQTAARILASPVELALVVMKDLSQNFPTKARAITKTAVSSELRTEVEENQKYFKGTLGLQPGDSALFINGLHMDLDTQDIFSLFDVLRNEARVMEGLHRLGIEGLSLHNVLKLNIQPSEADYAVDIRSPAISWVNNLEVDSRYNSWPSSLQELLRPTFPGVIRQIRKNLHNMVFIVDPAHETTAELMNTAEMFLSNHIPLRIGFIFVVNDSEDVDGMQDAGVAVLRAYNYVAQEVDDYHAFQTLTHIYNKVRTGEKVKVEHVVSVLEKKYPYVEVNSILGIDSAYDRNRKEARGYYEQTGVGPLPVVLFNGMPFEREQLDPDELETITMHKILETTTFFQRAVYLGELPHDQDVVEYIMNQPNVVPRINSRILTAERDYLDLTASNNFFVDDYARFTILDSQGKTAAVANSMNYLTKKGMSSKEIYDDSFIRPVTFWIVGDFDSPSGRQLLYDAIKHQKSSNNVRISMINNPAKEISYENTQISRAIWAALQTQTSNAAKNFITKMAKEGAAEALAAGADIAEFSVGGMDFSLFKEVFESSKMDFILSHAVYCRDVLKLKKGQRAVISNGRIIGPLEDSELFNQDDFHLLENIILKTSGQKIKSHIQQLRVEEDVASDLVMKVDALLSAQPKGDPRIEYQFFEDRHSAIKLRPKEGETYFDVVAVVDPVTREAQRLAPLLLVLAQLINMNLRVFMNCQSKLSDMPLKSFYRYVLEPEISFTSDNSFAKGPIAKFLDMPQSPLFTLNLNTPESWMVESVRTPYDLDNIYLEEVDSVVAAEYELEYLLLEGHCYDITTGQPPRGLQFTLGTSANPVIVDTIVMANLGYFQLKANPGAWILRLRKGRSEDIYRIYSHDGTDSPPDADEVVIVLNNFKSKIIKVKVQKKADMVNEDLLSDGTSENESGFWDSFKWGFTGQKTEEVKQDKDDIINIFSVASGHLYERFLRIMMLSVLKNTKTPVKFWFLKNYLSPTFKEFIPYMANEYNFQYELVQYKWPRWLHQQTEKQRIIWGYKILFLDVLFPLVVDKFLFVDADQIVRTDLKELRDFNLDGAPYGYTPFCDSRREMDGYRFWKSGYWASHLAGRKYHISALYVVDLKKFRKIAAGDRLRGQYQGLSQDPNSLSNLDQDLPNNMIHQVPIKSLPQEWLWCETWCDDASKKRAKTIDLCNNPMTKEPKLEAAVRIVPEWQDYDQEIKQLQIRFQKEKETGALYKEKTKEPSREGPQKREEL
UniProt Q9NXU5: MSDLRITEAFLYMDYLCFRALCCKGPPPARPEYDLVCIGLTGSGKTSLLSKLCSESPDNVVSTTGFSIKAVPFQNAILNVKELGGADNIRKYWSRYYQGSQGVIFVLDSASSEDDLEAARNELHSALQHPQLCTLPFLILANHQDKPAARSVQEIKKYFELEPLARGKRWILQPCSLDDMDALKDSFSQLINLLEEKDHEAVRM
UniProt Q9NSC5: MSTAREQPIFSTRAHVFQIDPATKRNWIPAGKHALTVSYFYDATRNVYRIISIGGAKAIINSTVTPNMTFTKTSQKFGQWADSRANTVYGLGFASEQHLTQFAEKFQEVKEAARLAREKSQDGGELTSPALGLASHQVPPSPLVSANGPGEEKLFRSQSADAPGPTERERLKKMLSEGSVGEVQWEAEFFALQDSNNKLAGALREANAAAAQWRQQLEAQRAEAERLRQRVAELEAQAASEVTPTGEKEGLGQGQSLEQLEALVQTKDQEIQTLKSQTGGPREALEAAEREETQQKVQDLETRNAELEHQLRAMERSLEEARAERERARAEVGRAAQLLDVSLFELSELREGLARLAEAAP
UniProt Q9NWT6: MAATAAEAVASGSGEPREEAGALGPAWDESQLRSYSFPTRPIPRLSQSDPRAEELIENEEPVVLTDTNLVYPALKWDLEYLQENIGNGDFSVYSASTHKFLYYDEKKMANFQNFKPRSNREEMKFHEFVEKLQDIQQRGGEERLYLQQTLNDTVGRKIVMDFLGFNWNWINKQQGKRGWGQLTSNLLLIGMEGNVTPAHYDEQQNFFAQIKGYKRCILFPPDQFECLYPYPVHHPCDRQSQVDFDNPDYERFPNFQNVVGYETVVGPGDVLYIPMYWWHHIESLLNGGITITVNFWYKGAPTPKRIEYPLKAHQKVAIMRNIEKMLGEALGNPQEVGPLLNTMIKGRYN
UniProt Q9NXG2: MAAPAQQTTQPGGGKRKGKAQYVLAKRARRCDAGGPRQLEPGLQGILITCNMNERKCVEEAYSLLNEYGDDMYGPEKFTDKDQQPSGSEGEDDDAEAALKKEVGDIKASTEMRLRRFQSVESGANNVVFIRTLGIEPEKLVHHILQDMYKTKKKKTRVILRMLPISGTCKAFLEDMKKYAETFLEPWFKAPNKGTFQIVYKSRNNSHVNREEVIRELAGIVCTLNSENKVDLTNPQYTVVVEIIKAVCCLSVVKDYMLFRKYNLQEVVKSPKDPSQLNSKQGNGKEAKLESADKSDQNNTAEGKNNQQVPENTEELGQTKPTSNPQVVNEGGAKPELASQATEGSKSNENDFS
UniProt Q9NQV6: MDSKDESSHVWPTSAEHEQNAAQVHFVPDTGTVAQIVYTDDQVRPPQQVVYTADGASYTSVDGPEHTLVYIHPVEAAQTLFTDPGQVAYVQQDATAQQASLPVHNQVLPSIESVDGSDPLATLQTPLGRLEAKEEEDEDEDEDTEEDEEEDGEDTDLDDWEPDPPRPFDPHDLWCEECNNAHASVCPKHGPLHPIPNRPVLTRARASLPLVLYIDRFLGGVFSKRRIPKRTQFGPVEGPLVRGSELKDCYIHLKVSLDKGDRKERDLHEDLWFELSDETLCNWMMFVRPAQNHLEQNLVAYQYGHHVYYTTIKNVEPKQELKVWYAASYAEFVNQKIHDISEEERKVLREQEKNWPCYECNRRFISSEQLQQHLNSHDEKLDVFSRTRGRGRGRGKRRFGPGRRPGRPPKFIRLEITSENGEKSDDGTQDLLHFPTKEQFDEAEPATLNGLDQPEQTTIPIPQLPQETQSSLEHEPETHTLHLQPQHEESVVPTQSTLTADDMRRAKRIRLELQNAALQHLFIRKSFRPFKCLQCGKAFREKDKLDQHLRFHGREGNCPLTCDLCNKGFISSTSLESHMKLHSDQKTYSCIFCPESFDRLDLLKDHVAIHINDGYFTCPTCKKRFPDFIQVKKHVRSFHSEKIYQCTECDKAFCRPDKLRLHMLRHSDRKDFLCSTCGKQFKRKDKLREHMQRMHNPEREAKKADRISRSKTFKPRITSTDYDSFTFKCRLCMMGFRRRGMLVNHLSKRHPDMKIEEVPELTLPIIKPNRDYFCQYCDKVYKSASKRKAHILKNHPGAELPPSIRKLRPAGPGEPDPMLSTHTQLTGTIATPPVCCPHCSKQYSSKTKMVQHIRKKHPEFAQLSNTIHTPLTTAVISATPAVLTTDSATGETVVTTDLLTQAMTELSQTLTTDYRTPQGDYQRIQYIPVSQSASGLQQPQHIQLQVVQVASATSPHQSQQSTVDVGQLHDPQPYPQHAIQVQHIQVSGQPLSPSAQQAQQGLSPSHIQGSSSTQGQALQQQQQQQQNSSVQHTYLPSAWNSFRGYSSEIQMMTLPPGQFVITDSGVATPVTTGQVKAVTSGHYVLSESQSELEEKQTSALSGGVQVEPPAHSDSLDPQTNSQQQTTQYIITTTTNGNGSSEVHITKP
UniProt Q9NX76: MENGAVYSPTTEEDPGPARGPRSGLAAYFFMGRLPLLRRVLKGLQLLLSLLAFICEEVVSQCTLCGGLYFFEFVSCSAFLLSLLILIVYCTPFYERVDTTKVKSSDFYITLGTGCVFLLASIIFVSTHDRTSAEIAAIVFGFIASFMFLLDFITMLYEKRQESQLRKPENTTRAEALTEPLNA

Target	log2 fold change
UniProt Q9NYU2 (peptide sequence: EQLDPDELETITMHK, peptide start residue: 644)	0.525
ARL15 (peptide sequence: AVPFQNAILNVK, peptide start residue: 70) (UniProt Q9NXU5)	-0.0948
HOMER3 (peptide sequence: EQPIFSTR, peptide start residue: 6) (UniProt Q9NSC5)	0.359
HIF1AN (peptide sequence: RIEYPLK, peptide start residue: 305) (UniProt Q9NWT6)	0.00818
THUMPD1 (peptide sequence: LESADKSDQNNTAEGK, peptide start residue: 289) (UniProt Q9NXG2)	-0.076
PRDM10 (peptide sequence: IEEVPELTLPIIKPNR, peptide start residue: 755) (UniProt Q9NQV6)	0.219
CMTM6 (peptide sequence: AEALTEPLNA, peptide start residue: 174) (UniProt Q9NX76)	-0.042
UniProt Q9NR48 (peptide sequence: LGLGTVVGLVNK, peptide start residue: 359)	0.574

Shown comma-delimited: part of the list above
Target,log2 fold change
"THUMPD1 (peptide sequence: LESADKSDQNNTAEGK, peptide start residue: 289) (UniProt Q9NXG2)",-0.076
"PRDM10 (peptide sequence: IEEVPELTLPIIKPNR, peptide start residue: 755) (UniProt Q9NQV6)",0.219

Reference: the supplement of paper PMC12819154, “High-throughput peptide-centric local stability assay extends protein–ligand identification to membrane proteins, tissues and bacteria” (Nature Structural & Molecular Biology, 2025)
